Data published in paper PMC6635409.
These are yes or no findings as the source states them, for the method shown. In cells and extracts the contact can be indirect. Some entries that bind do so weakly or less than the wild type.

By UniProt entry, the sequences of proteins in these tests, tags left out. Residues count along the entry.
UniProt Q9UGM1, residues 23-479: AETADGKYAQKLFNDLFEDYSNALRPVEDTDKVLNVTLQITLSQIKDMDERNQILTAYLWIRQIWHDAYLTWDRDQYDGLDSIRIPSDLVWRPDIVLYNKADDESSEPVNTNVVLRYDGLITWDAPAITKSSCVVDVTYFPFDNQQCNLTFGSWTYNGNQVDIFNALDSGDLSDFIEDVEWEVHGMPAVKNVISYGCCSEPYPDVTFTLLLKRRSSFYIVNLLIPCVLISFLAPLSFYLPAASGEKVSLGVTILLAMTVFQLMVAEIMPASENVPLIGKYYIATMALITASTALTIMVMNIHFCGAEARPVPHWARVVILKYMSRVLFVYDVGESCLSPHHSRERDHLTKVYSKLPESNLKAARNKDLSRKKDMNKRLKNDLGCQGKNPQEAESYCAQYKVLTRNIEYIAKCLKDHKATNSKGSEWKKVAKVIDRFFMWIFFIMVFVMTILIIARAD
UniProt P53350: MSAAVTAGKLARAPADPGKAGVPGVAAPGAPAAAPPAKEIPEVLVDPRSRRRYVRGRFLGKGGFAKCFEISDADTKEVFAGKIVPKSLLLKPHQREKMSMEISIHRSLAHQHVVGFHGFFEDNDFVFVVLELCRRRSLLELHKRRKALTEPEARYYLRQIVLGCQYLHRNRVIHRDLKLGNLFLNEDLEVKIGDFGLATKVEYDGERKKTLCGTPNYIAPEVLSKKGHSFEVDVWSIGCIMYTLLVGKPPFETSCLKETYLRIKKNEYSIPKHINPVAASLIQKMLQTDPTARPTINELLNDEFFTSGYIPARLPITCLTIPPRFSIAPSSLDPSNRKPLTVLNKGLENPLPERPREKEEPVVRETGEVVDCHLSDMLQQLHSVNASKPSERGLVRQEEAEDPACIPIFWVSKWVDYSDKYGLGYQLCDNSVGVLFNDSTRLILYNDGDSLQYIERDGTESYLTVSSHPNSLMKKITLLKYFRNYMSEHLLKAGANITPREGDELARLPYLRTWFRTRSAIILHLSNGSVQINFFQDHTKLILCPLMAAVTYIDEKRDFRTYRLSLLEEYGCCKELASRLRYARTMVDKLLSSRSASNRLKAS

Experiments:
[1] = molecular target: ERBB2-YFP (human) (UniProt P04626); experiment: FRET or BRET; FLIM (two-photon) in live MDA-MB-231 cells co-transfected with ERBB2-YFP/CHRNA9-CFP, starved 24 h; before nicotine and after washing with PBS
[2] = molecular target: ERBB2-YFP (human) (UniProt P04626); experiment: FRET or BRET; FLIM (two-photon) in live MDA-MB-231 cells co-transfected with ERBB2-YFP/CHRNA9-CFP, starved 24 h; during treatment with 10 µM nicotine for 30 min
[3] = molecular target: ERBB2-Nluc (human) (UniProt P04626); experiment: split reporter; split luciferase complementation; MDA-MB-231 cells co-transfected with CHRNA9-Cluc/ERBB2-Nluc, inoculated into mammary fat pads of nude mice; IVIS imaging before and 30 min after 100 µg kg^-1 oral nicotine
[4] = molecular target: T1, SLC16A7 (human (endogenous in MDA-MB-231 and A549)) (UniProt O60669); experiment: co-IP; endogenous proteins in MDA-MB-231 and A549 cells; SLC16A7 and four interacting candidates, IP ratio (IPR) against input, threshold >3% in both reciprocal IPs
T1 sequence: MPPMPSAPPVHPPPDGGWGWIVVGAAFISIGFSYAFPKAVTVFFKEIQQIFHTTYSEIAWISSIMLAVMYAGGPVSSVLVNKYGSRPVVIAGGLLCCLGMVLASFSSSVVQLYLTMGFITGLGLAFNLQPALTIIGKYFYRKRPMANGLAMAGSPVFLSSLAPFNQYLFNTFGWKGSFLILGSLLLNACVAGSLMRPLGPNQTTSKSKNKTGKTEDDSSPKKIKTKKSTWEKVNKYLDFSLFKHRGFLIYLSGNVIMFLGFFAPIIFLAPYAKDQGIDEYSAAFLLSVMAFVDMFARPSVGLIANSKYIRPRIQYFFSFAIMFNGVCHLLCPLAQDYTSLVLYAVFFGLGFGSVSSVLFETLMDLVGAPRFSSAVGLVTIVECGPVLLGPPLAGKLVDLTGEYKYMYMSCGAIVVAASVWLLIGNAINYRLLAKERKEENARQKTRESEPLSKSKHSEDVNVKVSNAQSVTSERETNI

[5] = molecular target: ERBB2 (human (endogenous in BT474, A549 and clinical breast tumors)) (UniProt P04626); experiment: FRET or BRET; clinical breast tumors of HER2-enriched and triple-negative subtypes, CHRNA9/ERBB2 analyzed by FRET
[6] = molecular target: ERBB2 (human (endogenous in BT474, A549 and clinical breast tumors)) (UniProt P04626); experiment: co-IP; endogenous proteins in BT474 (also A549) cells starved 24 h; ERBB2 antibody/bead complex precipitated and immunoblotted for CHRNA9; nicotine 15 min (dose-dependent, up to 10 µM) with or without bupropion pretreatment 30 min (0, 0.1, 1 µM)

“CHRNA9-CFP (from UniProt Q9UGM1 23-479) (receptor)” was tested, and the binding [1] was “binds” and the binding [2] was “no binding (condition: with 10 μM nicotine)”.

For “CHRNA9-Cluc (from UniProt Q9UGM1 23-479) (receptor)”, the binding [3] was “binds”.

For “PLK1 (from UniProt P53350 1-603) (enzyme)”, the binding [4] was “binds”.

For “nicotinic acetylcholine receptor subunit α9 (CHRNA9) (from UniProt Q9UGM1 23-479)”, the binding [5] was “binds” and the binding [6] was “binds”.
